From PubChem BioAssay AID1458 (National Center for Advancing Translational Sciences (NCATS), 2008) come the findings set out here.

The campaign covered roughly 210,000 compounds. About 5,900 (2.8%) were called active. Inconclusive results (about 5%) are left out. Calls come from the whole dose curve; as a rule, active = well fitted activation curve with a large enough effect; inconclusive = small, poorly fitted or top-dose-only effect; inactive = no such curve, though single readings can be large or run the other way. The entries are a selection whose mix differs from that of the whole data set. Where no call is shown, the source filed none.
Potency is the fitted concentration of half-maximal effect.

A short description of this assay: qHTS Assay for Enhancers of SMN2 Splice Variant Expression. For activity change, positive = activation: % of control where 0% means no effect. Note: nearly all actives have a fitted effect of over 55% in size. The settings on record: HEK293 SMN2-luciferase splicing reporter, luminescence, 30-36 h; activity change, positive = activation: at 46.1 µM (top of the series) unless noted. The gist of the method: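 HEK293 cells carry an SMN2 […]–luciferase reporter in which exon 7 inclusion puts luciferase in frame. Cells were plated 10-12 h before compound addition, then incubated 30-36 h at 37C. ONE-Glo luminescence was read; sodium butyrate at 4.5 mM final served as control.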
As for `O=C(O)c1ccc(NCc2cccnc2)cc1`, the activity change, positive = activation turned out to be 35.7%.
Still for that read-out and setting: the value for `Cc1cccc(Sc2c([N+](=O)[O-])ncn2C)c1` was -54.9%; that for `O=[N+]([O-])c1ccc(N2CCN(CCOc3nonc3-c3ccccc3)CC2)c(Cl)c1` was inactive: -47.7%.
On to `CC(C)=CC(=O)Nc1ccc(Br)cc1`, for which the Potency was active: 12.6 µM.
For the compound `Cc1nc2ccccc2n1CC(=O)NCc1ccccc1`, the activity change, positive = activation is -71.8%.
On the same count and under the same terms, the value for `Nc1c(C(=O)OCC2CCCO2)c2nc3ccccc3nc2n1-c1ccc2c(c1)OCCO2` (stereo unspecified) was -50.9%.
The same measure, in the same setting: the value for `c1ccc(-c2nc3ccccn3c2NCc2ccc3c(c2)OCO3)cc1` was inactive: -34.6%; that for `Cc1ccc(-c2cc(C(=O)N/N=C/C=C/c3ccccc3)n[nH]2)s1` was inactive: -30.3%; that for `Cc1ccc(C)c(N2CCN(C(=O)Cc3ccc(-n4c(=O)[nH]c5ccsc5c4=O)cc3)CC2)c1` was -46.5%.
The same measure, in the same setting: the value for `Cn1c(/C(C#N)=C/Nc2ccccn2)nc2ccccc21` was -37.2%; that for `COC(=O)CSc1nnc(-c2ccccc2OC)o1` was 21%.
Take `CCCCCn1c(CNC(=O)CCC)nc2ccccc21`: the activity change, positive = activation worked out at 49.8%.
With `CCOC(=O)c1cccc(NC(=O)CCS(=O)(=O)c2cccc3nsnc23)c1`, the activity change, positive = activation stood at 32.9%.
For the compound `CCC(=O)N1CCN(c2cc(C)ccc2C)CC1`, the activity change, positive = activation worked out at 40.1%.
Turning to `CCNCCC(=O)N1c2ccccc2Sc2ccc(NC(=O)OCC)cc21`, the activity change, positive = activation is -52.9%.
The same measure, in the same setting: the value for `O=C(c1ccc(S(=O)(=O)c2ccccc2Cl)c([N+](=O)[O-])c1)N1CCCCCC1` was -49.9%.
Take `Cc1ccc(N/N=C/c2ccc3c(c2)OCCO3)cc1Cl`: the Potency is active: 20 µM.
For the compound `C[C@@H]1C=C[C@](Cc2ccccc2)(C(=O)NCC2CC2)N1C(=O)c1ccccc1`, the “activity change, positive = activation” value was inactive: 14.6%.
The same measure, in the same setting: the value for `O=C(O)c1ccccc1OCCOCCOc1ccccc1C(=O)O` was 47.6%; that for `CNC(=O)c1cc2c(=O)n3cccc(C)c3nc2n(C(C)C)c1=N` was 60%.
The same measure, in the same setting: the value for `Cc1ccc(C(=O)Nc2cnc3ccccc3c2)cc1` was -86%.
For `COc1ccc(NC(=O)c2ccccn2)cc1`, the Potency was active: 1.58 µM.
With `COc1cccc(-c2cc(C(=O)Nc3c(C)nn(Cc4ccccc4)c3C)no2)c1`, the “activity change, positive = activation” value is inactive: -55%.
Still for that read-out and setting: the value for `O=C(/C(Br)=C/Nc1cc(Cl)ccc1Cl)C(F)(F)F` was 31%.
For `CN(C)/C=C/C(=O)c1cnc(-c2ccc(Cl)cc2)s1`, the Potency is active: 10 µM.
Turning to `COc1ccccc1C(=O)N1c2ccccc2C(C)(c2ccc(Cl)cc2)CC1(C)C` (stereo unspecified), the “activity change, positive = activation” value was inactive: -54.2%.
On the same count and under the same terms, the value for `O=C(Nc1nc(-c2ccccn2)cs1)c1ccc(Br)s1` was inactive: -95.7%; that for `COc1ccc(OC)c(NC(=O)c2sc3nc(Cc4ccccc4)cc(C(F)(F)F)c3c2N)c1` was 43%.
Same read-out and setting: the value for `c1ccc(-c2cc(CSc3nc4ccccc4[nH]3)on2)cc1` was -80.1%.
With `COc1ccc(C(=O)CSc2nnc(CNC(=O)c3ccc(OC)cc3)n2C)cc1`, the activity change, positive = activation came out at 21.4%.
Still for that read-out and setting: with `Cc1cc(=O)[nH]c(SCC2(O)C3CC4CC(C3)CC2C4)n1` (stereo unspecified) the figure was 32.7%.
Regarding `O=C(Nc1cccc(F)c1)N1CC2(CCN(C(=O)c3ccncc3)CC2)C1`, the “activity change, positive = activation” value was inactive: -32.3%.
On the same count and under the same terms, with `CC(=O)c1ccc(N2CCN(c3ncnc4onc(-c5ccc(Cl)cc5)c34)CC2)cc1` the figure was inactive: -35.3%.
Consider `C/C(=N\N1C(=O)c2ccccc2NC1c1ccco1)c1ccccc1O` (stereo unspecified), for which the Potency was active: 3.98 µM.
Take `COc1ccc(-c2c(C)nn3c(-c4ccccc4)cc(-c4ccccc4)nc23)cc1`: the activity change, positive = activation was determined as 36.7%.
On the same count and under the same terms, with `Cc1cc(=O)c2cc(Cl)ccc2[nH]1` the figure was -33%; with `CCOC(=O)Cn1c(N2CCOCC2)nc2c1c(=O)[nH]c(=O)n2C`, 40%.
For `Cc1ccccc1Cn1nnc(-c2ccc3c(c2)OCO3)n1`, the Potency is active: 3.98 µM.
Take `CN1C(CC(=O)c2ccccc2)CCCC1CC(O)c1ccccc1` (stereo unspecified): the activity change, positive = activation was found to be 30.2%.
The same measure, in the same setting: with `CN(C)S(=O)(=O)Nc1ccc(C(=O)O)cc1` the figure was 22%; with `COc1ccc(C2SCCN2S(=O)(=O)c2ccc(F)cc2)cc1OC` (stereo unspecified), inactive: -31.8%; with `N#Cc1c(/N=C/c2ccco2)sc2c1CCC2`, 37.1%.
On the same count and under the same terms, the value for `COc1ccc(-c2ccc(SCC(=O)Nc3cccc(C(C)=O)c3)nn2)cc1OC` was 75%; that for `O=C(Nc1ccc([N+](=O)[O-])cc1)N1CCCCC1` was 38.6%; that for `CN(C)c1ccc(-c2n(C)c3ccccc3[n+]2C)cc1` was -97.1%.
Still for that read-out and setting: the value for `C/C(=N\Nc1cc(-c2ccccc2)nc(-c2ccccc2)n1)c1ccc(O)c(C)c1` was -77.4%; that for `O=C(NNS(=O)(=O)c1ccc(F)cc1)C1CC(c2cccnc2)=NO1` (stereo unspecified) was inactive: -7.91%.
For `N#C/C(=C\C=C\c1ccccc1)C(=O)Nc1ccccc1`, the “activity change, positive = activation” value is inactive: 15.3%.
The same measure, in the same setting: the value for `COc1ccc(CCNC(=O)c2nnn(-c3ccc4c(c3)OCCO4)c2N)cc1OC` was -46.2%; that for `COC(=O)c1c(NC(NC(C)=O)C(Cl)(Cl)Cl)sc2c1CCCC2` (stereo unspecified) was -43.6%.
Regarding `CCOC(=O)c1[nH]c(COC(=O)C2CC(=O)N(Cc3ccccc3)C2)c(C(=O)OCC)c1C` (stereo unspecified), the activity change, positive = activation came to 31.3%.
Still for that read-out and setting: with `O=C(c1cnn2c(C(F)(F)F)cc(-c3ccc(Br)cc3)nc12)N1CCOCC1` the figure was -35.6%; with `Cc1ccc2nc(-c3ccccc3)c(NC(=O)c3ccco3)n2c1`, inactive: -12.3%; with `O=C(N/N=C/c1ccccn1)c1cccs1`, inactive: -44.9%.
On the same count and under the same terms, with `Cc1cc(NC(=O)CSc2ccc3ccccc3c2)no1` the figure was 36.3%; with `Cc1ccccc1NC(=S)N(CCN1CCOCC1)Cc1ccccc1F`, 12.8%.
